Measured values: article PMC10950348
Results are given in words; binding and its absence hold for the method and conditions named. Binding seen in cells or lysates may run through a third protein. Some entries that bind do so weakly or less than the wild type.

By UniProt entry, the sequences of proteins in these tests, tags left out.
UniProt Q00534: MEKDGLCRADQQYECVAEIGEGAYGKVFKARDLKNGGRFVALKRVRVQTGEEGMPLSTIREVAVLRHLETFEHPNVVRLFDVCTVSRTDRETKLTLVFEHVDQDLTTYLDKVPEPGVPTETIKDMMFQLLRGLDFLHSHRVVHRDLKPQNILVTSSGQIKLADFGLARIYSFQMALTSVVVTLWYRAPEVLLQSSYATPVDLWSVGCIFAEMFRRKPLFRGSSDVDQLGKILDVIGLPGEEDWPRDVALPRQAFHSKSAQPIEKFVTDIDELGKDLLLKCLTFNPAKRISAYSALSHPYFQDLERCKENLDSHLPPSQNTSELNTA

Molecular target: T1, cyclin I-like protein (CCNI2) (human (in human pancreatic cancer cells)) (UniProt Q6ZMN8)
T1 sequence: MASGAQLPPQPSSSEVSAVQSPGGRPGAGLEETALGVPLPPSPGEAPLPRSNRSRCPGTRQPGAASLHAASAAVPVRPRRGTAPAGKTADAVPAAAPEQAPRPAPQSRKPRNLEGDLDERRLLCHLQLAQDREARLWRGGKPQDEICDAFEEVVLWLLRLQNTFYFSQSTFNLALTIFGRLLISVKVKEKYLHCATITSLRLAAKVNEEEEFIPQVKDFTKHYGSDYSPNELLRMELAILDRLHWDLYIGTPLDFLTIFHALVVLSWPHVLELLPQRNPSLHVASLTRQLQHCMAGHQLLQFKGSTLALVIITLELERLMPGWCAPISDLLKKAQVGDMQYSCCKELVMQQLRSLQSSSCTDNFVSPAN
Test: co-IP; Co-IP in pancreatic cancer cells, detected by immunoblotting; precipitating antibody, cell line and buffer not told

cyclin-dependent kinase 6 (CDK6) (from UniProt Q00534 1-326)
binding: binds

cyclin-dependent kinase 5 (CDK5) (from UniProt Q00535 1-292)
binding: binds
